In patent US20140128333A1, “Compounds, Compositions, and Methods for Decreasing Intestinal Glucose Uptake and Inducing Incretin Release” (MAQUI NEW LIFE S.A., priority 2012, published 2014):
At least one compound was matched to its structure with a doubt left.

Sequences of proteins named here, by UniProt entry; tags and fusion partners are left off.
UniProt O14842, whole entry: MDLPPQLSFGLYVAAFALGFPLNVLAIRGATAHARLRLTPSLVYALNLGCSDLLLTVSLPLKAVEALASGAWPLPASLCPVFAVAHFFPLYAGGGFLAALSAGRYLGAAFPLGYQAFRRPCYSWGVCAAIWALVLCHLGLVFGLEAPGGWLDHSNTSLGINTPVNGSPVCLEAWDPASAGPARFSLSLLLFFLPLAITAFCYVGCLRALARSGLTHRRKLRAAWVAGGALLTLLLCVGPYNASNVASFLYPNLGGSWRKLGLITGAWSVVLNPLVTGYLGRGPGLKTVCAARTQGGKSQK

Biological target: T1, GPR40 receptor (Homo sapiens, UniProt O14842)
T1 construct: To assess and ensure the participation of GPR40 on calcium mobilization induced by delphinidin and cyanidin, Fura-2/AM-loaded HT-29 cells; endogenous in cells; host or cells: HT-29 cells
Assay: Measurement of calcium influx in Fura-2/AM-loaded HT-29 cells
Format: cell-based
Conditions: 100 μM

Oc1cc(O)c2cc(O)c(-c3ccc(O)c(O)c3)[o+]c2c1 [Cyanidin]
calcium fluxes (340/380 ratio) in HT-29 cells: induces calcium fluxes
